At least one peptide structure holds a part that was inferred or is arguable (an end, a ring closure or a residue). Square brackets hold non-standard residues; d marks the D form. Peptide text beside a SMILES is read from it. * marks the point of attachment. Biotin = O=C1N[C@H]2[C@H](CS[C@H]2CCCCC(=O)*)N1; Ahx = NCCCCCC(=O)O
Target: VLA-4 (Homo sapiens, UniProt P05556+P13612)
Type: cell-based
Set-up: host or cells: Jurkat (human T lymphoblastic line)
Description: Binding inhibition is measured here as a concentration of peptide that inhibits one-half the binding between a standard number of Jurkat cells and a standard amount of CS-1 peptide bound to the surface of a microtiter plate well. Those concentrations are conveniently expressed as IC50 values, smaller numbers indicating a lower concentration required to inhibit 50 percent binding and therefore greater potency. Further specifics of this assay are provided hereinafter.
Jurkat cells (ATCC TIB 152), a human T lymphoblastic line, labeled with ^51 chromium were used to assay in vitro binding inhibition provided by various peptides discussed herein.
The plates were prepared as follows: The 25-mer CS-1 peptide (SEQ ID NO:1) dissolved at 0.5-1 μg/ml in a buffer of 0.1M NaHCO3 at pH 9.5 that also contained 10 μg/ml of bovine serum albumin (BSA) or a conjugate of the CS-1 peptide linked to ovalbumin (CS-1-OVA) dissolved at 1-2.5 μg/ml in the same buffer was used as the substrate. Each well of the microtiter plates was coated with 50 μl of substrate or buffer alone for controls. The wells were permitted to dry out completely and were then rinsed twice with PBS at pH 7.4. Non-specific binding sites of each well were then blocked using 200 μl per well of RPMI/1 percent BSA for two hours at room temperature. Both solid phase-affixed substrates provided similar results. […]

Sequences of proteins named here, by UniProt entry; tags and fusion partners are left off. Residues count along the entry.
UniProt P13612, 34-1032: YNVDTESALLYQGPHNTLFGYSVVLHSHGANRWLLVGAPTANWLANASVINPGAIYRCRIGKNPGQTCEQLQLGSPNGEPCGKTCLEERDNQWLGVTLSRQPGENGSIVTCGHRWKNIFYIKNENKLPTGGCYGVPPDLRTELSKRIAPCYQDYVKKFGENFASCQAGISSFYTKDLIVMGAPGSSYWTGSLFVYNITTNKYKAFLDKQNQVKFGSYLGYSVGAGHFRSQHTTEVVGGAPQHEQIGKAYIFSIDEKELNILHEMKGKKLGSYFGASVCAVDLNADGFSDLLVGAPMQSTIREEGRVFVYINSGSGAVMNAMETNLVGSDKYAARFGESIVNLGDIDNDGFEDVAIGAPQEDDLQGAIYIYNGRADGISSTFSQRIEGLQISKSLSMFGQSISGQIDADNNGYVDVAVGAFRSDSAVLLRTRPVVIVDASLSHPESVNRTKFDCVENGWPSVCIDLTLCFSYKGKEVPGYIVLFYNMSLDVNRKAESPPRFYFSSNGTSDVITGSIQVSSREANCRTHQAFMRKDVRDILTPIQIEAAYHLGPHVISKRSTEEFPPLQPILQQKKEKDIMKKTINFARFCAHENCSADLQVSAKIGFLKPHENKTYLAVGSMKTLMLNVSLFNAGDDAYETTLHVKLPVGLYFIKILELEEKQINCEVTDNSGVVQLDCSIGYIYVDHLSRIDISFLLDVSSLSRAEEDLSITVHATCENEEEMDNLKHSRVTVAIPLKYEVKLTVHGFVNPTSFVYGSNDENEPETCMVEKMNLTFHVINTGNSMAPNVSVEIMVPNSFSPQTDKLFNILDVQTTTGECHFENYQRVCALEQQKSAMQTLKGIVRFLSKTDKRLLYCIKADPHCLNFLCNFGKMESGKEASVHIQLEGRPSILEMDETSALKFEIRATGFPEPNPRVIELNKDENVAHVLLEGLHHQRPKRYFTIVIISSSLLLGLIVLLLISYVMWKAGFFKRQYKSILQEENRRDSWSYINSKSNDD

**Q.** Which “binding inhibition better than the standard 10-mer peptide of SEQ ID NO:3” value does the source give for CC(C)C[C@H](NC(=O)[C@H](Cc1ccccc1)NC(=O)CCCCCNC(=O)CCCC[C@@H]1SC[C@@H]2NC(=O)N[C@@H]21)C(=O)N[C@@H](CC(=O)O)C(=O)N[C@@H](Cc1ccccc1)C(=O)N1CCC[C@@H]1C(N)=O [B Z F L D F p, N-(biotinoyl-ε-aminocaproyl)-Phe-Leu-Asp-Phe-D-Pro-NH2] ({Biotin-Ahx}-FLDF[dP]-NH2) here?
**A.** about 150 times

Source: patent publication US5688913A, “CS-1 peptidomimetics, compositions and methods of using the same” (Cytel Corporation, priority 1995, dated 1997)
